Where a name gives a salt, the structure may show the parent alone. The list shows a part of the results. The calls rarely recur for the same compound in another form.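 Kinases were expressed as nanoluciferase fusions in K562 cells and luminescence was read every 4 h between 2 and 18 h as percent of control, DMSO set to 100% and a positive control to 0%. A time point counts as decreased when the signal drops significantly (2 sigma). The hit call is the authors' own, does not follow from the count of time points alone, and its rule is not shown.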
How the values were obtained:
Assay in all cases: kinase-Nluc reporter destabilization hit call (1 = scored as downregulated) (binary); higher = compound decreases kinase abundance
Settings in all cases: K562, 2-18 h
MAPK1 = MAPK1 (UniProt P28482)
MAPK4 = MAPK4 (UniProt P31152)
MAPKAPK2 = MAPKAPK2 (UniProt P49137)
MKNK1 = MKNK1 (UniProt Q9BUB5)
NTRK2 = NTRK2 (UniProt Q16620)
NTRK3 = NTRK3 (UniProt Q16288)
PAK4 = PAK4 (UniProt O96013)
PBK = PBK (UniProt Q96KB5)
PDGFRB = PDGFRB (UniProt P09619)
PDK1 = PDK1 (UniProt Q15118)

The chains behind the UniProt entries cited, without tags or fusion partners. Where a name states a change or a piece, a line headed by the entry shows the natural chain unless it says otherwise.
UniProt P28482, whole entry: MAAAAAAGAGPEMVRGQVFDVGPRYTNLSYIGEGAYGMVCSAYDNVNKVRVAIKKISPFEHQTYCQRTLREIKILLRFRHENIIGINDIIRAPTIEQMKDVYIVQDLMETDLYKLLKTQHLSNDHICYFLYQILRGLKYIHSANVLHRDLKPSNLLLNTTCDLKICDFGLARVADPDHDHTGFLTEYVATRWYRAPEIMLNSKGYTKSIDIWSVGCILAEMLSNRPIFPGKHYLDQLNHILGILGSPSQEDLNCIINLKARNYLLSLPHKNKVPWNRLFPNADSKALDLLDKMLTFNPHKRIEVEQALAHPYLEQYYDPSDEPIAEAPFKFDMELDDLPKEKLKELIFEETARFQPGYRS
UniProt P31152, whole entry: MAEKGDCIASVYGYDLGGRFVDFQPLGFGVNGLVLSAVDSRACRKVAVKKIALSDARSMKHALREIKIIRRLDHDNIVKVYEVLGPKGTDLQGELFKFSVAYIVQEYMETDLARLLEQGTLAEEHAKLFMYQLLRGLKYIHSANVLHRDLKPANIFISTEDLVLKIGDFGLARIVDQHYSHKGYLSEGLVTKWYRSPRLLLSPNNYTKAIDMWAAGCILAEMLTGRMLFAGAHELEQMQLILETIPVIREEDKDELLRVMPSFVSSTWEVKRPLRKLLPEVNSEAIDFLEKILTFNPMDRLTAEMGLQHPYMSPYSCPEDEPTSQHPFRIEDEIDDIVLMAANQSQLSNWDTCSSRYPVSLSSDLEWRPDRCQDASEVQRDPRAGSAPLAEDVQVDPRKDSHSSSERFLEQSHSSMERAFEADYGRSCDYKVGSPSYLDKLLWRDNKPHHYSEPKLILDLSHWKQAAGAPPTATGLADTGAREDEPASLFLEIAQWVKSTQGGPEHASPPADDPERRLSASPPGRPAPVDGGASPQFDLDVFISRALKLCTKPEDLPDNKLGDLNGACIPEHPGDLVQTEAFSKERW
UniProt P49137, whole entry, looked up: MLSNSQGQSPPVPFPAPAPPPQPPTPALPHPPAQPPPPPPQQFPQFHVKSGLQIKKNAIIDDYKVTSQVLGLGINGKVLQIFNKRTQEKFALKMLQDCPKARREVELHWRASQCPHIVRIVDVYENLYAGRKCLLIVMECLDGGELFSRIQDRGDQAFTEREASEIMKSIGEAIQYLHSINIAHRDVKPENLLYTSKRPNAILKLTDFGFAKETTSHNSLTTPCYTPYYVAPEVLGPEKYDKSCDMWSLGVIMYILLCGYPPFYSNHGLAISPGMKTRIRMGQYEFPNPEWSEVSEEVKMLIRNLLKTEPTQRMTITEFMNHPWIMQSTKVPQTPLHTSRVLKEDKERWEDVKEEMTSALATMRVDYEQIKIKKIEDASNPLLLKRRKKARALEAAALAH
UniProt Q9BUB5: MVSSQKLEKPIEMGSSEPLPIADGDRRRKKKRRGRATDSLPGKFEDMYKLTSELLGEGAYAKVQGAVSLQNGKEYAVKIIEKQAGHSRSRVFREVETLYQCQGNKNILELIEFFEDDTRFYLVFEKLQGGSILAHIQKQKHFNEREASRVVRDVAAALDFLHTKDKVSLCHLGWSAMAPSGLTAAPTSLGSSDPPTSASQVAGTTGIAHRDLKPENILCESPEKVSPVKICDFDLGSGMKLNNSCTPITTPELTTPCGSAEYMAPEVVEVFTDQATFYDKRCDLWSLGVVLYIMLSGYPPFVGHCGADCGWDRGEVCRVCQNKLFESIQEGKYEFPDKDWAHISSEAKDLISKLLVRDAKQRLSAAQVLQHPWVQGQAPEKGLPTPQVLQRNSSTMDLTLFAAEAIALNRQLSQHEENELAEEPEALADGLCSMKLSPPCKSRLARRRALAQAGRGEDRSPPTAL
UniProt Q16620, whole entry, looked up: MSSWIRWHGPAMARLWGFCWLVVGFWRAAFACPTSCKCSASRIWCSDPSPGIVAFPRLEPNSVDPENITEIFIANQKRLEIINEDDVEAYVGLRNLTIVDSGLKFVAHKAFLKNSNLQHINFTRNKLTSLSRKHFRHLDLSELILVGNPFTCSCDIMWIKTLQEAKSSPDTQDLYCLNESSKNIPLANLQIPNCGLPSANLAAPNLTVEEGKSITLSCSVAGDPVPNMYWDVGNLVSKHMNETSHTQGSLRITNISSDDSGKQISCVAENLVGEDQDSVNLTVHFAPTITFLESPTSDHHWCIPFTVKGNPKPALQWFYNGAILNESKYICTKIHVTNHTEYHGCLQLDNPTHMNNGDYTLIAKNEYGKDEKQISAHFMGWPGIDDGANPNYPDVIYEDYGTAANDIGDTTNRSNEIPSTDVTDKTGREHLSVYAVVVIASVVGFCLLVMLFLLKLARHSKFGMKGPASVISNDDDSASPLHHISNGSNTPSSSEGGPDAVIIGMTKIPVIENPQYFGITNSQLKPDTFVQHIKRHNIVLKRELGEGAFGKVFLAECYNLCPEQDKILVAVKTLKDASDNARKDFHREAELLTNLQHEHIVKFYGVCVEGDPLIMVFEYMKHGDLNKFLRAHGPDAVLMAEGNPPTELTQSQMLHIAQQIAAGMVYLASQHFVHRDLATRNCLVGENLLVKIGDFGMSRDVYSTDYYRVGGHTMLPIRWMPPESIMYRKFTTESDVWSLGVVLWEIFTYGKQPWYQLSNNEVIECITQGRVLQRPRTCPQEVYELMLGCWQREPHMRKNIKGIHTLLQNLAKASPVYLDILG
UniProt Q16288, whole entry, looked up: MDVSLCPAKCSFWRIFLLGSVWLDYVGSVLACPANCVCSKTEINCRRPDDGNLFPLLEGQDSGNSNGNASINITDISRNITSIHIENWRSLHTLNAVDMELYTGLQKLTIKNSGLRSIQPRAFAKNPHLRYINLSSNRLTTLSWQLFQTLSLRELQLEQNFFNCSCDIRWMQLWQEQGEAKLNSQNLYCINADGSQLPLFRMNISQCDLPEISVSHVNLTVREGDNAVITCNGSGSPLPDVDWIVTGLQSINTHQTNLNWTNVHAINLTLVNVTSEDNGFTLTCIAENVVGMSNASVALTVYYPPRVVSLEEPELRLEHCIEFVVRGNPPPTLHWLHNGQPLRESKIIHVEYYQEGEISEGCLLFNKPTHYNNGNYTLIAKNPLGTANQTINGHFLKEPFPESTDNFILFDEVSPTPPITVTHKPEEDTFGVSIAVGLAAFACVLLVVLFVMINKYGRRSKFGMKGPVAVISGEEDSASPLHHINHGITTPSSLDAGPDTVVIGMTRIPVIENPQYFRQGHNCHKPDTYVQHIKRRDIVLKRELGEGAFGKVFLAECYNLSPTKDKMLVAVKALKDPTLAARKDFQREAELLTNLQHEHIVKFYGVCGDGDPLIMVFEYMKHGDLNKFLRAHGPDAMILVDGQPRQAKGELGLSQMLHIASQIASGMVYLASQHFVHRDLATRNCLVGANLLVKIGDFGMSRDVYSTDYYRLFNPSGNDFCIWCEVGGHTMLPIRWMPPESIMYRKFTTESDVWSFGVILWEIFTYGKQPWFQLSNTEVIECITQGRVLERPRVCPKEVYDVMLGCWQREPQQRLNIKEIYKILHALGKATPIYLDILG
UniProt O96013: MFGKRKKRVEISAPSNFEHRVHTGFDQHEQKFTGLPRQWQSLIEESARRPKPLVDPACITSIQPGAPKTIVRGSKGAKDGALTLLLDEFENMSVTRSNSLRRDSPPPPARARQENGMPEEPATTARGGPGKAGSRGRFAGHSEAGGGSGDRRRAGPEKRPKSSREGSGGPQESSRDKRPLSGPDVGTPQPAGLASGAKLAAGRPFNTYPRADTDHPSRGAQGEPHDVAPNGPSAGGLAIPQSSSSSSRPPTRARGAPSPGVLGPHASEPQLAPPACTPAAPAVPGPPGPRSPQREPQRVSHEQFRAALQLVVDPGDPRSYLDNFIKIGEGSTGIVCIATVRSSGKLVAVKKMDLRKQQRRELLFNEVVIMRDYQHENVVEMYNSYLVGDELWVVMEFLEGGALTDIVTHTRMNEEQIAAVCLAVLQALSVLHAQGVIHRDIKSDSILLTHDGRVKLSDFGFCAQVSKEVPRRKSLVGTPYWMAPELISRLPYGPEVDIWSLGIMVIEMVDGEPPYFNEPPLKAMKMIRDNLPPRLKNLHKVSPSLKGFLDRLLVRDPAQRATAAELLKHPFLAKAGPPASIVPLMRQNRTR
UniProt Q96KB5: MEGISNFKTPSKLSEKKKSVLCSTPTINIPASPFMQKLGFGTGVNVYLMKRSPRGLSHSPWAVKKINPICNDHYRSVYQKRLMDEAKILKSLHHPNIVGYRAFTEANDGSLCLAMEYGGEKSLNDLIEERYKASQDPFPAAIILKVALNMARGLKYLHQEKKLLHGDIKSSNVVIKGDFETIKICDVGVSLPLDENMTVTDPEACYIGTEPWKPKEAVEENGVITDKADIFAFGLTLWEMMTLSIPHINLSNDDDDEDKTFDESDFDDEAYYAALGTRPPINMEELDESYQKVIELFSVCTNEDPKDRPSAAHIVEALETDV
UniProt P09619, whole entry: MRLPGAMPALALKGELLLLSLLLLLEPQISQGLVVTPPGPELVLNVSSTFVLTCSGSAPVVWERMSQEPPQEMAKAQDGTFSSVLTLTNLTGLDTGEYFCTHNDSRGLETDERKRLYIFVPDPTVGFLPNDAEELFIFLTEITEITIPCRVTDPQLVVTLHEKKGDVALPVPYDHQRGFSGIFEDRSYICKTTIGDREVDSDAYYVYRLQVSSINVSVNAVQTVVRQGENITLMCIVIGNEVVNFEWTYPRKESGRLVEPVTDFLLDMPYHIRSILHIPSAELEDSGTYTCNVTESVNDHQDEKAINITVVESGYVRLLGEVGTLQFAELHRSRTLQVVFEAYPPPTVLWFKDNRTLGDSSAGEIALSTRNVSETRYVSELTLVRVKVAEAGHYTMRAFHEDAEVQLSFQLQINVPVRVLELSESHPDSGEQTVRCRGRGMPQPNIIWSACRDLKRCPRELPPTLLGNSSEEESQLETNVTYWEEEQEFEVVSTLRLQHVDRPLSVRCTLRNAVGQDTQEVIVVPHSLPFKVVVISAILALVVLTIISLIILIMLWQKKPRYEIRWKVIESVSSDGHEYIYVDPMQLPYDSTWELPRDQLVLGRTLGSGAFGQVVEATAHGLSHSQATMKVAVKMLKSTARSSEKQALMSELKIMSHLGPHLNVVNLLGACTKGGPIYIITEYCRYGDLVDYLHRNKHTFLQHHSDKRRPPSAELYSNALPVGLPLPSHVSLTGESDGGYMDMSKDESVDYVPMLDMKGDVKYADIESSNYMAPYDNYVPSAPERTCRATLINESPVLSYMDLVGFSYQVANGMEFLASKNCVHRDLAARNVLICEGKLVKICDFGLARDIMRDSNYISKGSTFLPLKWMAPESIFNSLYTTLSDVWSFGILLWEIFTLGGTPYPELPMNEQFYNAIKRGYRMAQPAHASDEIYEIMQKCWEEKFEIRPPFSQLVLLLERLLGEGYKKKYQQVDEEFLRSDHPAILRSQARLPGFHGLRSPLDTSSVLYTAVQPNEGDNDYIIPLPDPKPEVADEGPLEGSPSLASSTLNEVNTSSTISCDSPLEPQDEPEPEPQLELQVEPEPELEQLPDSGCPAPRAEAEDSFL
UniProt Q15118, whole entry, looked up: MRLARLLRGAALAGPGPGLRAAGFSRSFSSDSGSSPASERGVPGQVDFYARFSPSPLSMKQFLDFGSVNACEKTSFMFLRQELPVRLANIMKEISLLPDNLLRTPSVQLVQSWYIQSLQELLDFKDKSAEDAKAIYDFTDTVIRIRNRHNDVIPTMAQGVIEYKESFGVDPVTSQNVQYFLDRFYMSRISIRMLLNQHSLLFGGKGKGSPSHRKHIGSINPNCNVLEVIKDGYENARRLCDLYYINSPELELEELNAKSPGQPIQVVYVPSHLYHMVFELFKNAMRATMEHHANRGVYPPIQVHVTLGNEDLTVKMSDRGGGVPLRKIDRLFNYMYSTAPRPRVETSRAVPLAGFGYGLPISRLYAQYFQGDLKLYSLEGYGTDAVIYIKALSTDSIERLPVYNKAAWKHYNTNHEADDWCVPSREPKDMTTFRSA

Measured: kinase-Nluc reporter destabilization hit call

COc1cc(/C=C/C(=O)O)ccc1O [Ferulic acid]
inactive: MAPK1; 10 µM 0 | MAPK4; 10 µM 0 | MAPKAPK2; 10 µM 0 | MKNK1; 10 µM 0 | NTRK2; 10 µM 0 | NTRK3; 10 µM 0 | PAK4; 10 µM 0 | PBK; 10 µM 0 | PDGFRB; 10 µM 0 | PDK1; 10 µM 0

N#CCC1(n2cc(-c3ncnc4[nH]ccc34)cn2)CN(C2CCN(C(=O)c3ccnc(C(F)(F)F)c3F)CC2)C1 [Itacitinib adipate]
inactive: MAPK1; 10 µM 0 | MAPK4; 10 µM 0 | MAPKAPK2; 10 µM 0 | MKNK1; 10 µM 0 | NTRK2; 10 µM 0 | NTRK3; 10 µM 0 | PAK4; 10 µM 0 | PBK; 10 µM 0 | PDGFRB; 10 µM 0 | PDK1; 10 µM 0

Nc1cncc(-c2cn3ccnc3c(Nc3ccc(N4CCN(C5COC5)CC4)cc3)n2)n1 [Lanraplenib]
inactive: MAPK1; 10 µM 0 | MAPK4; 10 µM 0 | MAPKAPK2; 10 µM 0 | MKNK1; 10 µM 0 | NTRK2; 10 µM 0 | NTRK3; 10 µM 0 | PAK4; 10 µM 0 | PBK; 10 µM 0 | PDGFRB; 10 µM 0 | PDK1; 10 µM 0

O=C1Nc2ccccc2/C1=C/c1ccccn1 [(E/Z)-GSK-3β inhibitor 1]
inactive: MAPK1; 10 µM 0 | MAPK4; 10 µM 0 | MAPKAPK2; 10 µM 0 | MKNK1; 10 µM 0 | NTRK2; 10 µM 0 | NTRK3; 10 µM 0 | PAK4; 10 µM 0 | PBK; 10 µM 0 | PDGFRB; 10 µM 0 | PDK1; 10 µM 0

CN(C)C(=O)c1cc2cnc(Nc3ccc(N4CCNCC4)cn3)nc2n1C1CCCC1 [Ribociclib succinate hydrate]
inactive: MAPK1; 2.5 µM 0 | MAPK4; 2.5 µM 0 | MAPKAPK2; 2.5 µM 0 | MKNK1; 2.5 µM 0 | NTRK2; 2.5 µM 0 | NTRK3; 2.5 µM 0 | PAK4; 2.5 µM 0 | PBK; 2.5 µM 0 | PDGFRB; 2.5 µM 0 | PDK1; 2.5 µM 0

CNc1ncc2cc(-c3ccc(-c4cccc(C)n4)cc3Cl)c(=O)n(C[C@H]3OC[C@H](N)CO3)c2n1 [G-5555 (hydrochloride)]
inactive: MAPK1; 10 µM 0 | MAPK4; 10 µM 0 | MAPKAPK2; 10 µM 0 | MKNK1; 10 µM 0 | NTRK2; 10 µM 0 | NTRK3; 10 µM 0 | PAK4; 10 µM 0 | PBK; 10 µM 0 | PDGFRB; 10 µM 0 | PDK1; 10 µM 0

CCCC(=O)Nc1ncnc2c1ncn2[C@@H]1O[C@@H]2COP(=O)(O)O[C@H]2[C@H]1OC(=O)CCC [Bucladesine (calcium)]
inactive: MAPK1; 10 µM 0 | MAPK4; 10 µM 0 | MAPKAPK2; 10 µM 0 | MKNK1; 10 µM 0 | NTRK2; 10 µM 0 | NTRK3; 10 µM 0 | PAK4; 10 µM 0 | PBK; 10 µM 0 | PDGFRB; 10 µM 0 | PDK1; 10 µM 0

O=C(c1ccc(F)c(F)c1Nc1ccc(I)cc1F)N1CC(O)([C@@H]2CCCCN2)C1 [Cobimetinib]
inactive: MAPK1; 10 µM 0 | MAPK4; 10 µM 0 | MAPKAPK2; 10 µM 0 | MKNK1; 10 µM 0 | NTRK2; 10 µM 0 | NTRK3; 10 µM 0 | PAK4; 10 µM 0 | PBK; 10 µM 0 | PDGFRB; 10 µM 0 | PDK1; 10 µM 0

CS(=O)(=O)N1CCN(Cc2cc3nc(-c4cccc5[nH]ncc45)nc(N4CCOCC4)c3s2)CC1 [Pictilisib]
inactive: MAPK1; 10 µM 0 | MAPK4; 10 µM 0 | MAPKAPK2; 10 µM 0 | MKNK1; 10 µM 0 | NTRK2; 10 µM 0 | NTRK3; 10 µM 0 | PAK4; 10 µM 0 | PBK; 10 µM 0 | PDGFRB; 10 µM 0 | PDK1; 10 µM 0

COc1cc2nccc(Oc3ccc(NC(=O)C4(C(=O)Nc5ccc(F)cc5)CC4)cc3)c2cc1OC [Cabozantinib (S-malate)]
inactive: MAPK1; 10 µM 0 | MAPK4; 10 µM 0 | MAPKAPK2; 10 µM 0 | MKNK1; 10 µM 0 | NTRK2; 10 µM 0 | NTRK3; 10 µM 0 | PAK4; 10 µM 0 | PBK; 10 µM 0 | PDGFRB; 10 µM 0 | PDK1; 10 µM 0

CNC(=O)c1ccc(Nc2ncc(C(F)(F)F)c(NCc3nccnc3N(C)S(C)(=O)=O)n2)cc1 [Defactinib (hydrochloride)]
inactive: MAPK1; 10 µM 0 | MAPK4; 10 µM 0 | MAPKAPK2; 10 µM 0 | MKNK1; 10 µM 0 | NTRK2; 10 µM 0 | NTRK3; 10 µM 0 | PAK4; 10 µM 0 | PBK; 10 µM 0 | PDGFRB; 10 µM 0 | PDK1; 10 µM 0

CNC(=O)c1cc(Oc2ccc(NC(=O)Nc3ccc(Cl)c(C(F)(F)F)c3)c(F)c2)ccn1 [Regorafenib (monohydrate)]
inactive: MAPK1; 2.5 µM 0 | MAPK4; 2.5 µM 0 | MAPKAPK2; 2.5 µM 0 | MKNK1; 2.5 µM 0 | NTRK2; 2.5 µM 0 | NTRK3; 2.5 µM 0 | PAK4; 2.5 µM 0 | PBK; 2.5 µM 0 | PDGFRB; 2.5 µM 0 | PDK1; 2.5 µM 0

COc1ncc(F)cc1CNc1ccc(Cc2c[nH]c3ncc(C)cc23)c(F)n1
inactive: MAPK1; 10 µM 0 | MAPK4; 10 µM 0 | MAPKAPK2; 10 µM 0 | MKNK1; 10 µM 0 | NTRK2; 10 µM 0 | NTRK3; 10 µM 0 | PAK4; 10 µM 0 | PBK; 10 µM 0 | PDGFRB; 10 µM 0 | PDK1; 10 µM 0

Cc1[nH]c(/C=C2\C(=O)Nc3ccc(F)cc32)c(C)c1C(=O)NCCN1CCCC1 [Toceranib]
inactive: MAPK1; 2 µM 0 | MAPK4; 2 µM 0 | MAPKAPK2; 2 µM 0 | MKNK1; 2 µM 0 | NTRK2; 2 µM 0 | NTRK3; 2 µM 0 | PAK4; 2 µM 0 | PBK; 2 µM 0 | PDGFRB; 2 µM 0 | PDK1; 2 µM 0

COC(=O)[C@H](CC(C)C)NC(=O)c1ccc(NC[C@@H](N)CS)cc1-c1cccc2ccccc12 [GGTI298 (Trifluoroacetate)]
inactive: MAPK1; 10 µM 0 | MAPK4; 10 µM 0 | MAPKAPK2; 10 µM 0 | MKNK1; 10 µM 0 | NTRK2; 10 µM 0 | NTRK3; 10 µM 0 | PAK4; 10 µM 0 | PBK; 10 µM 0 | PDGFRB; 10 µM 0 | PDK1; 10 µM 0

From the supplement of paper PMC12823440, “Inhibitors supercharge kinase turnover through native proteolytic circuits” (Nature, 2025)
